Laboratory results from publication doi:10.1101/2020.12.28.424526 (bioRxiv, 2020).

Biological target: T1, 5'-3' exoribonuclease-2 (XRN-2) (C. elegans (endogenous in worm lysate)) (UniProt Q9U299)
T1 sequence: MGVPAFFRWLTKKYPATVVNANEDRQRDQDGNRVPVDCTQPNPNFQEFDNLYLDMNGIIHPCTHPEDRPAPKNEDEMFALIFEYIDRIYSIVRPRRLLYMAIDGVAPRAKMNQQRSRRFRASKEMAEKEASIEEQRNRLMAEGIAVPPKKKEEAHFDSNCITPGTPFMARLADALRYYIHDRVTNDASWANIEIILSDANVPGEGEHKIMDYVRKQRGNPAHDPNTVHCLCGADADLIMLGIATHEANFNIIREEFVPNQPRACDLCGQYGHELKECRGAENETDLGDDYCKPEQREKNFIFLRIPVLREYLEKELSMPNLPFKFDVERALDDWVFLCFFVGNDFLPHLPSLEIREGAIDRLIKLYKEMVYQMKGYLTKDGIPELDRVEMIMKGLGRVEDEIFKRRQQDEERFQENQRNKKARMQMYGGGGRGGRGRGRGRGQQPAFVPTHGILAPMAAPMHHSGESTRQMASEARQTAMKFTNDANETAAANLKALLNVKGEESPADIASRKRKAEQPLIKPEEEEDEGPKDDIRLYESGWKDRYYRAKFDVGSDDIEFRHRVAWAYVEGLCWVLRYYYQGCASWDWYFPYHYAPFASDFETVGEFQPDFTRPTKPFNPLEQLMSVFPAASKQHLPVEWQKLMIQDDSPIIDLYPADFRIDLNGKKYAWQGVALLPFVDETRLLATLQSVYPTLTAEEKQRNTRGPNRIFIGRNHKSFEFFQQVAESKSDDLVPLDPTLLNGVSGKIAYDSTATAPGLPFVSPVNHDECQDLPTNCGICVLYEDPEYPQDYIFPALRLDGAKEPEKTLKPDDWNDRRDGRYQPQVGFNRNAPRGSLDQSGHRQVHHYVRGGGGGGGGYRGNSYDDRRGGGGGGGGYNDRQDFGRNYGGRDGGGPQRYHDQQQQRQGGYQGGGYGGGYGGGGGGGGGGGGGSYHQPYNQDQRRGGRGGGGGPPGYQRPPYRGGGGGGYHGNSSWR
Test: co-IP

Substance | binding
NOL-58 (C. elegans (endogenous in worm lysate)) | binds
miRNasome-1.4 (B0024.11) (C. elegans (endogenous in worm lysate)) | binds

Results are given in words; binding and its absence hold for the method and conditions named. Binding seen in cells or lysates may run through a third protein. Binding calls can cover weak binding; strength is not graded here.
